# Experimental data taken from PubChem BioAssay AID504467 (National Center for Advancing Translational Sciences (NCATS), 2011).
# The whole screen tested about 330,000 compounds, of which about 7,700 (2.3%) were called active. The inconclusive results got no clear call from the source; some entries with a clear call stand among them for comparison. Calls follow the shape of the dose curve; as a rule, active = well fitted inhibition curve with a large enough effect; inconclusive = small, poorly fitted or top-dose-only effect, or effect the other way; inactive = flat fitted curve, though single readings scatter. A potency beside an inconclusive call is a rough fit, not a confirmed value.
# Assay: qHTS screen for small molecules that inhibit ELG1-dependent DNA repair in human embryonic kidney (HEK293T) cells expressing luciferase-tagged ELG1; also: nearly all actives have a fitted effect of over 55% in size
# Details: HEK293T ELG1-luciferase reporter, luminescence, 16 h, DNA damage induced by 5-fluorouridine; series mostly up to 46.1 µM
# Method in brief: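 Overnight (16 hr) co-exposure of 2,000 cells/well to 5-fluorouridine and compound at 37 °C preceded detection. Luciferase was quantified via ONE-Glo luminescence; loss of signal denotes inhibition.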
# Potency is read from the fitted curve at half-maximal effect.
row,Compound,Potency
1,Cc1ccc(NC(=O)c2cnccn2)cc1C,"inconclusive: 15.8 µM [activator, partial curve]"
2,CC(=O)Nc1ccc2c(c1)ncn2-c1ccccc1,"inconclusive: 16.4 µM [activator, partial curve]"
3,CCOC(=O)/C(=N/Nc1ccc(OC)cc1)N1CCCc2ccccc21,inactive
4,COc1ccccc1C(=O)NCC(=O)N/N=C/c1cccc(Cl)c1,inactive
5,CC(C)(C)C(=O)N1CCN(c2ncnc3scc(-c4ccccc4)c23)CC1,"inconclusive: 29.1 µM [inhibitor, single point]"
6,CC(C(=O)Nc1ccc(Br)cc1)N(C)CC(=O)NCc1ccco1 (stereo not drawn),inactive
7,COc1ccc(OCc2n[nH]c(=S)o2)cc1,"inconclusive: 13 µM [activator, partial curve, poor fit]"
8,CCc1[nH]nc(C(=O)N2CCCC(Nc3cccc(F)c3)C2)c1C (stereo not drawn),"inconclusive: 18.3 µM [activator, partial curve]"
9,Cc1cc(C(=O)N/N=C/c2ccc3c(c2)OCO3)c2ccccc2n1,"inconclusive: 5.8 µM [inhibitor, single point]"
10,Cc1ccc(S(=O)(=O)N2CCCN(S(=O)(=O)c3ccc(C)c(C)c3)CC2)cc1C,inactive
11,Cn1nccc1C(=O)NC(=S)Nc1sc2c(c1C#N)CCCCC2,"inconclusive: 2.59 µM [activator, full curve]"
12,CC(=O)Nc1ccc(C(=O)CN2C(=O)NC3(CCCc4ccccc43)C2=O)c(F)c1 (stereo not drawn),inactive
13,COc1ccc(OCC(O)CN2CCC(CN3C(=O)c4cccc5cccc(c45)C3=O)CC2)cc1 (stereo not drawn),inactive
14,CCN1CCCC(Sc2nc3c([nH]2)c(=S)n(C)c(=O)n3C)C1 (stereo not drawn),inactive
15,Cc1ccccc1N(C)S(=O)(=O)c1ccc2[nH]cc(C(=O)NCC3CCCO3)c(=O)c2c1 (stereo not drawn),"inconclusive: 11.2 µM [inhibitor, partial curve, poor fit]"
16,COc1ccccc1C1CC(c2ccccc2)=NN1C(=S)Nc1ccccc1 (stereo not drawn),inactive
17,O=C(CCN1CCCCO1)N1CCCC(Nc2ccc(F)cc2)C1 (stereo not drawn),inactive
18,COc1cc(C(=O)NNC(=O)COc2ccccc2Cl)ccc1OCC(=O)N1CCOCC1,inactive
19,CCOC(=O)N1CCN(S(=O)(=O)c2ccc(C)c([N+](=O)[O-])c2)CC1,inactive
20,CCCNC(=O)c1nnsc1S(=O)c1ccc(Cl)cc1 (stereo not drawn),inactive
21,COc1ccc(-c2nnc3ccc(SCC(=O)Nc4nccs4)nn23)cc1OC,"inconclusive: 23.1 µM [inhibitor, partial curve, poor fit]"
22,N#Cc1ccc(C(=O)OCC(=O)Nc2cccnc2Cl)cc1,inactive
23,Cc1ccc(-c2cc(C(=O)Nc3c(C#N)cnn3C)no2)cc1,"inconclusive: 23.1 µM [activator, partial curve]"

# Rewritten with tabs: six of the compounds above.
row	Compound	Potency
9	Cc1cc(C(=O)N/N=C/c2ccc3c(c2)OCO3)c2ccccc2n1	inconclusive: 5.8 µM [inhibitor, single point]
10	Cc1ccc(S(=O)(=O)N2CCCN(S(=O)(=O)c3ccc(C)c(C)c3)CC2)cc1C	inactive
11	Cn1nccc1C(=O)NC(=S)Nc1sc2c(c1C#N)CCCCC2	inconclusive: 2.59 µM [activator, full curve]
12	CC(=O)Nc1ccc(C(=O)CN2C(=O)NC3(CCCc4ccccc43)C2=O)c(F)c1 (stereo not drawn)	inactive
13	COc1ccc(OCC(O)CN2CCC(CN3C(=O)c4cccc5cccc(c45)C3=O)CC2)cc1 (stereo not drawn)	inactive
14	CCN1CCCC(Sc2nc3c([nH]2)c(=S)n(C)c(=O)n3C)C1 (stereo not drawn)	inactive

# Continuation.

row,Compound,Potency
1,Cc1ccc(/C=N/NC(=O)CSc2nc3ccccc3s2)o1,"inconclusive: 23.1 µM [activator, partial curve, poor fit]"
2,N#CC(C#N)=C1C=CC=CN1/C(=C\c1ccco1)C(=O)c1ccc(Br)cc1,"inconclusive: 29.1 µM [inhibitor, single point]"
3,CCCCN1CC(=O)N2[C@H]3c4cc(C)ccc4OC[C@@H]3[C@H](C(=O)OCC)[C@]2(C)C1=O,inactive
4,COc1ccccc1C1c2[nH]c3ccccc3c2C[C@H]2C(=O)N(C3CCN(Cc4ccccc4)CC3)CC(=O)N12 (stereo partly drawn),active: 23.1 µM
5,Cc1ccc(C)c(NC(=O)C2CCCN2C(=O)NC2CCCCC2)c1 (stereo not drawn),inactive
6,O=C(CCCn1nnc2ccccc2c1=O)N[C@H](C(=O)O)c1ccccc1,"inconclusive: 29.1 µM [activator, partial curve, poor fit]"
7,COC(=O)C1=C(C)N(Cc2ccccc2)C(=NCCc2c[nH]c3ccccc23)N[C@H]1c1ccccc1,inactive
8,O=C(COC(=O)CCc1nc2ccccc2c(=O)[nH]1)NC(c1ccccc1)c1ccccc1,"inconclusive: 29.1 µM [activator, single point]"
9,CCOC(=O)Cc1csc(NC(=O)Cc2ccc(Br)cc2)n1,"inconclusive: 20.6 µM [inhibitor, partial curve, poor fit]"
10,COc1ccccc1Nc1ccc([N+](=O)[O-])cn1,"inconclusive: 18.3 µM [activator, single point]"
11,O=C(CN(c1ccccc1)S(=O)(=O)c1ccccc1)N/N=C/c1ccc(OC2CSC2)cc1,"inconclusive: 16.4 µM [inhibitor, single point]"
12,CC(=O)ONC(=Nc1ccccc1)c1nonc1N,"inconclusive: 16.4 µM [activator, partial curve, poor fit]"
13,CC1CC(C)CN(C(=O)CSc2nc(Cc3cccs3)nc3ccccc23)C1 (stereo not drawn),"inconclusive: 18.4 µM [inhibitor, single point]"
14,Cc1ccc(S(=O)(=O)NCCCOC(=O)Nc2ccncc2)cc1,"inconclusive: 18.4 µM [inhibitor, single point]"
15,Cc1ccc(NC(=O)NCC2CCN(Cc3cccc(Cl)c3)CC2)cc1Cl,"inconclusive: 25.9 µM [inhibitor, single point]"
16,Cc1cccc(-n2c(N)c(C(=O)NCCN3CCOCC3)c3nc4ccccc4nc32)c1,"inconclusive: 23.1 µM [inhibitor, partial curve]"
17,CCCc1cc(=O)[nH]c(SCC(=O)Nc2ccc(Cl)c(S(=O)(=O)N3CCOCC3)c2)n1,inactive
18,COc1ccccc1CNC(=O)c1ccc(-c2ccccc2)cc1,"inconclusive: 29.1 µM [activator, partial curve, poor fit]"
19,O=C(c1ccc(F)cc1)N1CCOCC1,"inconclusive: 32.6 µM [inhibitor, partial curve, poor fit]"
20,O=C(Nc1ncc([N+](=O)[O-])s1)c1cccc([N+](=O)[O-])c1,"inconclusive: 0.58 µM [activator, partial curve, poor fit]"
21,O=C(CSc1ccc2nnc(CCNC(=O)c3ccc(F)cc3)n2n1)NCc1ccco1,inactive
22,O=C(c1ccc(Br)o1)N1CCN(c2ccccc2F)CC1,inactive
23,COc1ccc(CN(C(=O)c2snc(C(N)=O)c2N)C(C(=O)NC2CCCC2)c2ccc(OC)c(OC)c2)cc1 (stereo not drawn),"inconclusive: 29.1 µM [inhibitor, partial curve, poor fit]"

row,Compound,Potency
1,CCC(C)Nc1nc(C)nc2c1oc1ccccc12 (stereo not drawn),"inconclusive: 18.3 µM [inhibitor, single point]"
2,CCCC(=O)N(CCN1CCOCC1)c1nc2cc(C)c(C)cc2s1,"inconclusive: 7.3 µM [activator, partial curve]"
3,CCOC(=O)c1c(C)[nH]c(C)c1C(=O)CN1C(=O)NC2(CCC(C)CC2)C1=O (stereo not drawn),"inconclusive: 20.6 µM [inhibitor, partial curve, poor fit]"
4,Cc1ccc(/C=N/Nc2nncc(-c3ccccc3)n2)o1,"inconclusive: 29.1 µM [activator, single point]"
5,COc1ccccc1NC(=O)CN(Cc1ccco1)C(=O)c1ccc(-n2nc(C)cc2C)cc1,active: 23.1 µM
6,Cc1cc(NC(=O)c2ccccc2)ncc1NC(=O)c1cccs1,"inconclusive: 7.3 µM [activator, partial curve]"
7,Cc1cccc(CCNC(=O)Cc2ccc(NC3=NC4CS(=O)(=O)CC4S3)cc2)c1 (stereo not drawn),"inconclusive: 29.1 µM [activator, partial curve, poor fit]"
8,Cc1ccc(-n2cc(CNCCN3CCOC3=O)c(-c3cccc(C)c3)n2)cc1,inactive
9,c1cc2c(cnc3cscc32)s1,"inconclusive: 8.2 µM [inhibitor, partial curve]"
10,CC(Oc1cccc(Br)c1)C(=O)NNC(=O)CCS(=O)(=O)c1ccccc1 (stereo not drawn),"inconclusive: 14.6 µM [activator, partial curve, poor fit]"
11,COc1ccccc1-c1nc2n(n1)C(c1cccs1)C(C(=O)Nc1cccnc1)=C(C)N2 (stereo not drawn),"inconclusive: 15.8 µM [inhibitor, partial curve, poor fit]"
12,CC(C)(C)NS(=O)(=O)c1cc2c3c(c1)CCN3C(=O)CC2,"inconclusive: 20.6 µM [activator, single point]"
13,CC(NC(=O)c1ccccc1)c1nnc(SCC(=O)NC2CCCC2)n1C (stereo not drawn),inactive
14,O=C(CN1c2cccc3cccc(c23)S1(=O)=O)N1CCN(c2ccc(F)cc2)CC1,"inconclusive: 29.1 µM [inhibitor, single point]"
15,COC(=O)c1[nH]c2cccc(OC)c2c1NC(=O)CN1CC(C)OC(C)C1 (stereo not drawn),"inconclusive: 29.1 µM [inhibitor, partial curve, poor fit]"
16,Nc1ccccc1-n1cccc1,"inconclusive: 29.1 µM [inhibitor, single point]"
17,O=C(OCc1ccccc1)c1ccc2c(c1)-c1ccccc1C2=O,"inconclusive: 6.51 µM [activator, single point]"
18,C=CCn1cc(/C=N\NC(=O)c2cc3c(ccc4ccccc43)o2)c2ccccc21,"inconclusive: 29.1 µM [inhibitor, single point]"
19,COc1ccc(-c2nc3ccc(C)cn3c2NCc2ccccc2)cc1SC1CCCCC1,"inconclusive: 2.82 µM [inhibitor, single point]"
20,COCc1ccc(C(=O)N2CCCC(C(=O)c3ccc(Cl)cc3C)C2)o1 (stereo not drawn),"inconclusive: 25.9 µM [inhibitor, single point]"
21,N#Cc1cnc2cc(-c3ccccc3)nn2c1N,"inconclusive: 14.6 µM [activator, partial curve]"
22,Fc1ccc(-c2csc(-c3ccccn3)n2)cc1F,"inconclusive: 23.1 µM [activator, partial curve]"
